Measured values taken from paper PMC9445035.

Target: LDB1ΔLID
Assay: co-IP; Cos7 cells co-transfected with both proteins, lysed 72 h later; lysate incubated overnight at 4 °C with magnetic beads carrying HA or FLAG antibody (IgG isotype controls); lysis and wash buffer 20 mM Hepes pH 7.4, 100 mM KCl, 2 mM MgCl2, 1% Triton X-100; Western blot for MTG8

- binding: no binding
B1: MTG8 (protein, UniProt Q61909 1-577)
chain: MPDRTEKHSTMPDSPVDVKTQSRLTPPAMPPPPTTQGAPRTSSFTPTTLTNGTSHSPTALNGAPSPPNGFSNGPSSSSSSSLANQQLPPACGARQLSKLKRFLTTLQQFGNDISPEIGERVRTLVLGLVNSTLTIEEFHSKLQEATNFPLRPFVIPFLKANLPLLQRELLHCARLAKQNPAQYLAQHEQLLLDASTTSPVDSSELLLDVNENGKRRTPDRTKENGFDREPLHSEHPSKRPCTISPGQRYSPNNGLSYQPNGLPHPTPPPPQHYRLDDMAIAHHYRDSYRHPSHRDLRDRNRPMGLHGTRQEEMIDHRLTDREWAEEWKHLDHLLNCIMDMVEKTRRSLTVLRRCQEADREELNYWIRRYSDAEDLKKGGSSSSSHSRQQSPVNPDPVALDAHREFLHRPASGYVPEEIWKKAEEAVNEVKRQAMTELQKAVSEAERKAHDMITTERAKMERTVAEAKRQAAEDALAVINQQEDSSESCWNCGRKASETCSGCNTARYCGSFCQHKDWEKHHHICGQTLQAPQQGDTPAVSSSVTPSSGAGSPMDTPPAATPRSTTPGTPSTIETTPR

Results are given in words; binding and its absence hold for the method and conditions named. Binding seen in cells or lysates may run through a third protein.
